Laboratory results: PubChem BioAssay AID1259254 (NCATS, 2017)

Aim: 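Gene knock-downs that lead to re-replication, shown by excess G2 DNA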 (primary screen)
Cell system: human HCT116 colorectal cancer cells
Reagent: single siRNA against human genes
Timing: 3 days
Measured: 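Imaged Hoechst DNA stain sorts each cell into a cycle phase by DNA amount; per plate, G2 fraction set to 0% for non-targeting and 100% for GMNN siRNA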
Direction: G2 robust z-score: higher = more G2 cells, more excess DNA replication
Hit rule: 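Active siRNAs have a G2 robust z of 5 or more median absolute deviations over the median, which in these data means about 38% or higher of GMNN control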
Shown is a random part of about 59,000 deposited reagents. About 1,550 of all reagents (2.6%) were called active. 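G2 share is only a proxy for re-replication; each gene was hit by three separate siRNAs, and active genes were retested.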 The numbers tell different reagents against one gene apart. Further read-outs or replicates are left out here. Not stated in the record: the amount of reagent.

The opening 2 entries, to show the layout:
CHTOP (GeneID 26097) #1
- G2 robust z-score: 3.68
- call: inactive

CHTOP (GeneID 26097) #2
- G2 robust z-score: -0.202
- call: inactive

The list itself, repeating the preview:
CHTOP (GeneID 26097) #1
- G2 robust z-score: 3.68
- call: inactive

CHTOP (GeneID 26097) #2
- G2 robust z-score: -0.202
- call: inactive

CHTOP (GeneID 26097) #3
- G2 robust z-score: -0.219
- call: inactive

CD1D (GeneID 912) #1
- G2 robust z-score: 0.13
- call: inactive

CD1D (GeneID 912) #2
- G2 robust z-score: -0.442
- call: inactive

CD1D (GeneID 912) #3
- G2 robust z-score: 0.52
- call: inactive

HLA-DQB1 (GeneID 3119) #1
- G2 robust z-score: 5.58
- call: active

HLA-DQB1 (GeneID 3119) #2
- G2 robust z-score: 1.03
- call: inactive

HLA-DQB1 (GeneID 3119) #3
- G2 robust z-score: 3.48
- call: inactive

LYPLA2P2 (GeneID 388499) #1
- G2 robust z-score: 1.03
- call: inactive

LYPLA2P2 (GeneID 388499) #2
- G2 robust z-score: 0.374
- call: inactive

LYPLA2P2 (GeneID 388499) #3
- G2 robust z-score: 0.000826
- call: inactive
